Laboratory results published in paper PMC5261017.

By UniProt entry, the sequences of proteins in these tests, tags left out. Residues count along the entry.
UniProt Q13185: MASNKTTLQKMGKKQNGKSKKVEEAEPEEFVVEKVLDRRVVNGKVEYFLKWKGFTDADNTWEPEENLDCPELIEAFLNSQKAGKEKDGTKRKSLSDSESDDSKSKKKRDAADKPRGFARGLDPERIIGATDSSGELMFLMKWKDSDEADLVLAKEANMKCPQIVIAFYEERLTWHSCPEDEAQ
UniProt P11387: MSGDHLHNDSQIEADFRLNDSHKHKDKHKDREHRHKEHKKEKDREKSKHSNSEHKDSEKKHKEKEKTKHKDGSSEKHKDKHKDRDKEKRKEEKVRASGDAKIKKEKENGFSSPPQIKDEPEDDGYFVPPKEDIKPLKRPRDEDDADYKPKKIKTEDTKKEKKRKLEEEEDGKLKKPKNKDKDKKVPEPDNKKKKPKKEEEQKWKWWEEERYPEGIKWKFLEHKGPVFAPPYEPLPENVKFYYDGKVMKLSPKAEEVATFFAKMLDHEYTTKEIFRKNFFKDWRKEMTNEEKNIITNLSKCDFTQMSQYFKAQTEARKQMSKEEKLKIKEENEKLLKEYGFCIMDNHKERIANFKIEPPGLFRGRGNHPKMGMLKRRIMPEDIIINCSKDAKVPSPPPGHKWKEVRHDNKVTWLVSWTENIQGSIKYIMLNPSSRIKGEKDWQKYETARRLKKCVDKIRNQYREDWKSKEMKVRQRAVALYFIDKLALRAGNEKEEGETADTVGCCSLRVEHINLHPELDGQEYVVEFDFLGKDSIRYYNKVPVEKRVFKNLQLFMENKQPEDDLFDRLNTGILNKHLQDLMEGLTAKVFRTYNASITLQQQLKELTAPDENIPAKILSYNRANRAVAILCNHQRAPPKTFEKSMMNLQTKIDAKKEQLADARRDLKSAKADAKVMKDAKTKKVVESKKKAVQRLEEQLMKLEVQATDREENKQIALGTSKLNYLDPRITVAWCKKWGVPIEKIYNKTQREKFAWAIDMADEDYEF
UniProt P06396, residues 28-782: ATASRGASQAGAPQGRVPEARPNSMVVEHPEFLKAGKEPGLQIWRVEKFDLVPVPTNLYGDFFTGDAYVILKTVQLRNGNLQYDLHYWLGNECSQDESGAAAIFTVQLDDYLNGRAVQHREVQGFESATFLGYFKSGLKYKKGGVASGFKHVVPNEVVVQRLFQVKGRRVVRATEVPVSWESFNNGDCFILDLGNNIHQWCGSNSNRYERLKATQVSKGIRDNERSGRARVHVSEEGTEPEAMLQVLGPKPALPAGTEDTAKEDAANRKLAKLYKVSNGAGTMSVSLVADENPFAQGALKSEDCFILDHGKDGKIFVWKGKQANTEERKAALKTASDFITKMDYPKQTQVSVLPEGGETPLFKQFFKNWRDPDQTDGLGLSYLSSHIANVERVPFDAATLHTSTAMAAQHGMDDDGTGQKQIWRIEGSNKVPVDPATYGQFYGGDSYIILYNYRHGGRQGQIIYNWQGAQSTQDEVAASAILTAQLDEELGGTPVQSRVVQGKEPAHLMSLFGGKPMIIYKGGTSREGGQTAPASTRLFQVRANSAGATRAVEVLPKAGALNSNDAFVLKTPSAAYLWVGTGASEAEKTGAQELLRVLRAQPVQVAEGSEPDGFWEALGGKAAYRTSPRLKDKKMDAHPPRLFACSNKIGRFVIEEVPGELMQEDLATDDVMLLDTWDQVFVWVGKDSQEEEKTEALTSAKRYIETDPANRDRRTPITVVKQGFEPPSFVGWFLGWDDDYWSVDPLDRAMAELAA
UniProt P04792: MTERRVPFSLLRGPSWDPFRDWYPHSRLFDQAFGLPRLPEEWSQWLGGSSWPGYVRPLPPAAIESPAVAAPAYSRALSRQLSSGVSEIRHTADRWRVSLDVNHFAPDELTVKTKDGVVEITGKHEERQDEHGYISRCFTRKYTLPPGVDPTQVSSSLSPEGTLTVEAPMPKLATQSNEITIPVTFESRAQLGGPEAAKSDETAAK
UniProt P17096: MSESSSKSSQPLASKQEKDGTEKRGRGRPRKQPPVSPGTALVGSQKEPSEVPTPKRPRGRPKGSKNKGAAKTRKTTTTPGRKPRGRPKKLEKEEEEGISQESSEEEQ
UniProt Q96KG7, residues 26-1140: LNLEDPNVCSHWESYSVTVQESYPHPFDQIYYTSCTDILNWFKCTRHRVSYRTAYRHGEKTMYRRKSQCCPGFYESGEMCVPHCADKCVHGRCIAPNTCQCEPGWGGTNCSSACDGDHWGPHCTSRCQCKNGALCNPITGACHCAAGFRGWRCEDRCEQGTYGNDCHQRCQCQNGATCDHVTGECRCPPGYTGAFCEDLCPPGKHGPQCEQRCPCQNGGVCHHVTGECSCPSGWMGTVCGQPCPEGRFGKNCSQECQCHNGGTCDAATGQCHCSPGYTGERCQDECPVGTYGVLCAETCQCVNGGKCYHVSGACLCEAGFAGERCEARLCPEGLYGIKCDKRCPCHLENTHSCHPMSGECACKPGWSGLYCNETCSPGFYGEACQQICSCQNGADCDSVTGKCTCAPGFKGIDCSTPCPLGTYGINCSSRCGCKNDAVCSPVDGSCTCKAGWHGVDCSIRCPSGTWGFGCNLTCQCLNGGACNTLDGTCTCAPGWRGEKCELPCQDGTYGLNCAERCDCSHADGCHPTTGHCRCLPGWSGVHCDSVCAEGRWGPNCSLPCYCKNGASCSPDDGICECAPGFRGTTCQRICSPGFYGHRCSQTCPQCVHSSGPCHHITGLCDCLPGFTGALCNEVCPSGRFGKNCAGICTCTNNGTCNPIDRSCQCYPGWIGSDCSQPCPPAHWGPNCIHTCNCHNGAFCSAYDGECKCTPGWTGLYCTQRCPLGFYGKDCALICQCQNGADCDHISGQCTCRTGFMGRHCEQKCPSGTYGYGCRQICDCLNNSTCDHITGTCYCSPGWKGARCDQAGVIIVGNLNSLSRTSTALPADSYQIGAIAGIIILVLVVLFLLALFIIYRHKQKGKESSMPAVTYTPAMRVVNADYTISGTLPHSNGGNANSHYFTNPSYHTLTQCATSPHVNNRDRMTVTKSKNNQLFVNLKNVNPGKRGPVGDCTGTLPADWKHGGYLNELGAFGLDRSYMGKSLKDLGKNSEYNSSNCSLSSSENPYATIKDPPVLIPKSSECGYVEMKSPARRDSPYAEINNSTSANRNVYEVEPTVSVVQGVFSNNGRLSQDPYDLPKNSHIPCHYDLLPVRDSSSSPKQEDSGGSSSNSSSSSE
UniProt O43166: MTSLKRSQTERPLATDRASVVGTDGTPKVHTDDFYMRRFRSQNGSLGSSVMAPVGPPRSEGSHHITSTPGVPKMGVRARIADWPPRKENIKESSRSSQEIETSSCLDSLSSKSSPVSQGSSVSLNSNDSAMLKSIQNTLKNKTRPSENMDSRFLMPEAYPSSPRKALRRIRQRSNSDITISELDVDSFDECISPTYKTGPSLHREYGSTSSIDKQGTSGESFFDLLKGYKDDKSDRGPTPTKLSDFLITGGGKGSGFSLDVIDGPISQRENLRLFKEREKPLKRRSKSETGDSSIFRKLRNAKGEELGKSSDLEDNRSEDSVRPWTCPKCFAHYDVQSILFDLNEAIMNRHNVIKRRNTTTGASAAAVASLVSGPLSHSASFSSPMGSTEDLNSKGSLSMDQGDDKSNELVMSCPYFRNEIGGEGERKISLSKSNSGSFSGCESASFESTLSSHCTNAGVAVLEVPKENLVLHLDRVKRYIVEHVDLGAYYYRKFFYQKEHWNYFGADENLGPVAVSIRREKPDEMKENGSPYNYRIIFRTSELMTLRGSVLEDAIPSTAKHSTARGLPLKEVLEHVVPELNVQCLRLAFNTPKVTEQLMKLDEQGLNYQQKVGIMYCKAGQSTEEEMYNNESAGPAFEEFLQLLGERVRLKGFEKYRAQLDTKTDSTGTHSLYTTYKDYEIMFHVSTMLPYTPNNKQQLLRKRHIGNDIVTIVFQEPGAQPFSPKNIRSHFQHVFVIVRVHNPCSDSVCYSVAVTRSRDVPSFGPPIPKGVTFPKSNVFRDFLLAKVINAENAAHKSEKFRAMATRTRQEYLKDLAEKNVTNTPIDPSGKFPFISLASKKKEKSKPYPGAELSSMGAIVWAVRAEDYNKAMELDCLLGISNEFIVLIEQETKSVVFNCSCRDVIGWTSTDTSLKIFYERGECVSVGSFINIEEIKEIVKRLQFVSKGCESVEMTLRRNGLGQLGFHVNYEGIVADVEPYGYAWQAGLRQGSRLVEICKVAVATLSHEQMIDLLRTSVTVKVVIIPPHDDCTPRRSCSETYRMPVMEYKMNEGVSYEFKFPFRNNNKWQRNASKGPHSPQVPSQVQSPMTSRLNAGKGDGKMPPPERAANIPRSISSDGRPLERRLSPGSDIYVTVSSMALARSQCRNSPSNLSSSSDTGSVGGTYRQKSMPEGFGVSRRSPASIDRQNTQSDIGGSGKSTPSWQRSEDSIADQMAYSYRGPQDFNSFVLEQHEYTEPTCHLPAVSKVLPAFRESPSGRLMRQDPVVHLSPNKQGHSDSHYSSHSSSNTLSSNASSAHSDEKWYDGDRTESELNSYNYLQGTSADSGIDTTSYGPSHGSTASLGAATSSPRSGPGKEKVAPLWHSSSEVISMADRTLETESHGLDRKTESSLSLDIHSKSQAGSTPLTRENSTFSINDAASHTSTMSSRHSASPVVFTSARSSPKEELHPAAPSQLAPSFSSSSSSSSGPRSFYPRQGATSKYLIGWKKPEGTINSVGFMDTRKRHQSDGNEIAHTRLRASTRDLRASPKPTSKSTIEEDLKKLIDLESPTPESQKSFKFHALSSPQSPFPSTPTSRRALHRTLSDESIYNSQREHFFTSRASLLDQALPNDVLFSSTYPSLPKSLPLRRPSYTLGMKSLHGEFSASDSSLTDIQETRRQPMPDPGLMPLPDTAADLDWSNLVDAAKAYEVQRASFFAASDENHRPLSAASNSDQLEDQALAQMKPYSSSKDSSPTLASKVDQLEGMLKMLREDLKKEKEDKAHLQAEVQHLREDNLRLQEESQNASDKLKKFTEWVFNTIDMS
UniProt O15372: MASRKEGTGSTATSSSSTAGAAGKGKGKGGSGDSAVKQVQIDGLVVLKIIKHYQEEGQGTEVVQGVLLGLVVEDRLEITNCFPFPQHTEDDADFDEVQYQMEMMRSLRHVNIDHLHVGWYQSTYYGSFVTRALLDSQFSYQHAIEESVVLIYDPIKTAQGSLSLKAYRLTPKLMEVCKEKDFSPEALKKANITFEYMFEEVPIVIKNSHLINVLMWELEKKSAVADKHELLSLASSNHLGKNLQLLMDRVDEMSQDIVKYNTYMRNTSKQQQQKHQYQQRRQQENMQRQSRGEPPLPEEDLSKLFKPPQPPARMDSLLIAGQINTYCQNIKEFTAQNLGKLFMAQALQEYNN
UniProt Q7Z2W4: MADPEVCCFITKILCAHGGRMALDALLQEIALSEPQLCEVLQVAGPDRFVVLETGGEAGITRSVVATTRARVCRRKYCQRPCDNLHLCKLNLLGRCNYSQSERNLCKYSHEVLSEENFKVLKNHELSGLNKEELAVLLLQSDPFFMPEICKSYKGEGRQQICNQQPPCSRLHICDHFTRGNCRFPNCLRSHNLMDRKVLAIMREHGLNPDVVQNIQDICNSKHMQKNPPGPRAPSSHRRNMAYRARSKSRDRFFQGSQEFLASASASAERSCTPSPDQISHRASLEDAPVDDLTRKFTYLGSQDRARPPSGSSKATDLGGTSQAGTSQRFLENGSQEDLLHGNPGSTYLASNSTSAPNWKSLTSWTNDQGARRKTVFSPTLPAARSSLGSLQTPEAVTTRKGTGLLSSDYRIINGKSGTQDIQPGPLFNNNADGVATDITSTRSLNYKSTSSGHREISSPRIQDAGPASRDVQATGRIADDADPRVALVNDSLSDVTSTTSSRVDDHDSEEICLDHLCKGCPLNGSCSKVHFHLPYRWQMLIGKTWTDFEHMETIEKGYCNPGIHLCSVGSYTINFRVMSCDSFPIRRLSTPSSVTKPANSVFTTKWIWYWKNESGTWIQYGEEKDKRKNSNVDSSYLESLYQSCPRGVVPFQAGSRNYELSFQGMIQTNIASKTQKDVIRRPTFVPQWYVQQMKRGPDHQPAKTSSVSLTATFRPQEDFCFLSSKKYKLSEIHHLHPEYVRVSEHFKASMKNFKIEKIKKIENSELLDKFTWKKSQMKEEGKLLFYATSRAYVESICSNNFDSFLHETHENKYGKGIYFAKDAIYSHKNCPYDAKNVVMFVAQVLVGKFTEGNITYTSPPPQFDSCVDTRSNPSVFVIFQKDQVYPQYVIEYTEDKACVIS
UniProt Q86UQ0: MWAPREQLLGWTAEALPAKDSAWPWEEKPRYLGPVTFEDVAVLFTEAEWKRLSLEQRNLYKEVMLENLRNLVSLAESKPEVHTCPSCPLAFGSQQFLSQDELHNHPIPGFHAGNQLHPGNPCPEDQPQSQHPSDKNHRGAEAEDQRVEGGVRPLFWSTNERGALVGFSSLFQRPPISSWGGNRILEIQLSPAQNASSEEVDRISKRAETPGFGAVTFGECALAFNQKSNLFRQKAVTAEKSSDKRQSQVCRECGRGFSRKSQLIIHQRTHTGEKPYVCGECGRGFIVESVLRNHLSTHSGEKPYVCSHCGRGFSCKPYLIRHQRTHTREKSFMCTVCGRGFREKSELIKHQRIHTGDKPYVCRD

T1: Heme oxygenase 1 (recombinant FLAGHO-1) (human) (UniProt P09601)
T1 sequence: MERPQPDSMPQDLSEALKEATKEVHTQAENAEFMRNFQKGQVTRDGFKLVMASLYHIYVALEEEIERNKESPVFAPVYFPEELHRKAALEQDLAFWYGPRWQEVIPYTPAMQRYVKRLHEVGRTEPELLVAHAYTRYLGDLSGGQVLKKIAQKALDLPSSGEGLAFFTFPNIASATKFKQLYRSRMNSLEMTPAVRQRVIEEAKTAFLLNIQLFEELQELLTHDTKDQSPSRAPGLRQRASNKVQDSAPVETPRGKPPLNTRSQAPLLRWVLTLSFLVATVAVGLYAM

B1: FtsJ3 protein (protein, UniProt Q8IY81 1-847)
chain: MGKKGKVGKSRRDKFYHLAKETGYRSRSAFKLIQLNRRFQFLQKARALLDLCAAPGGWLQVAAKFMPVSSLIVGVDLVPIKPLPNVVTLQQDITTERCRQALRKELKTWKVDVVLNDGAPNVGASWVHDAYSQAHLTLMALRLACDFLARGGSFITKVFRSRDYQPLLWIFQQLFRRVQATKPQASRHESAEIFVVCQGFLAPDKVDSKFFDPKFAFKEVEVQAKTVTELVTKKKPKAEGYAEGDLTLYHRTSVTDFLRAANPVDFLSKASEIMVDDEELAQHPATTEDIRVCCQDIRVLGRKELRSLLNWRTKLRRYVAKKLKEQAKALDISLSSGEEDEGDEEDSTAGTTKQPSKEEEEEEEEEQLNQTLAEMKAQEVAELKRKKKKLLREQRKQRERVELKMDLPGVSIADEGETGMFSLSTIRGHQLLEEVTQGDMSAADTFLSDLPRDDIYVSDVEDDGDDTSLDSDLDPEELAGVRGHQGLRDQKRMRLTEVQDDKEEEEEENPLLVPLEEKAVLQEEQANLWFSKGSFAGIEDDADEALEISQAQLLFENRRKGRQQQQKQQLPQTPPSCLKTEIMSPLYQDEAPKGTEASSGTEAATGLEGEEKDGISDSDSSTSSEEEESWEPLRGKKRSRGPKSDDDGFEIVPIEDPAKHRILDPEGLALGAVIASSKKAKRDLIDNSFNRYTFNEDEGELPEWFVQEEKQHRIRQLPVGKKEVEHYRKRWREINARPIKKVAEAKARKKRRMLKRLEQTRKKAEAVVNTVDISEREKVAQLRSLYKKAGLGKEKRHVTYVVAKKGVGRKVRRPAGVRGHFKVVDSRMKKDQRAQQRKEQKKKHKRK
B2: Alpha-2-HS-glycoprotein (protein, UniProt P02765 19-367)
chain: APHGPGLIYRQPNCDDPETEEAALVAIDYINQNLPWGYKHTLNQIDEVKVWPQQPSGELFEIEIDTLETTCHVLDPTPVARCSVRQLKEHAVEGDCDFQLLKLDGKFSVVYAKCDSSPDSAEDVRKVCQDCPLLAPLNDTRVVHAAKAALAAFNAQNNGSNFQLEEISRAQLVPLPPSTYVEFTVSGTDCVAKEATEAAKCNLLAEKQYGFCKATLSEKLGGAEVAVTCMVFQTQPVSSQPQPEGANEAVPTPVVDPDAPPSPPLGAPGLPPAGSPPDSHVLLAAPPGHQLHRAHYDLRHTFMGVVSLGSPSGEVSHPRKTRTVVQPSVGAAAGPVVPPCPGRIRHFKV
B3: Junctional sarcoplasmic reticulum protein 1 (protein, UniProt Q96MG2 1-331)
chain: MSMTTRAWEELDGGLGSCQALEDHSALAETQEDRASATPRLADSGSVPHDSQVAEGPSVDTRPKKMEKEPAARGTPGTGKERLKAGASPRSVPARKKAQTAPPLQPPPPPPALSEELPWGDLSLNKCLVLASLVALLGSAFQLCRDAVPGEAALQARVPEPWVPPSSAPREPSSPLPKFEAQAPPSAPPAPRAEAEVRPKIPGSREAAENDEEEPGEATGEAVREDRVTLADRGPKERPRREGKPRKEKPRKEERPKKERPRKEERPRAAREPREALPQRWESREGGHRPWARDSRDAEPRKKQAWVSPRRPDEEQRPGSRQKLRAGKGRD
B4: KH-type splicing regulatory protein (protein, UniProt Q92945 1-711)
chain: MSDYSTGGPPPGPPPPAGGGGGAGGAGGGPPPGPPGAGDRGGGGPGGGGPGGGSAGGPSQPPGGGGPGIRKDAFADAVQRARQIAAKIGGDAATTVNNSTPDFGFGGQKRQLEDGDQPESKKLASQGDSISSQLGPIHPPPRTSMTEEYRVPDGMVGLIIGRGGEQINKIQQDSGCKVQISPDSGGLPERSVSLTGAPESVQKAKMMLDDIVSRGRGGPPGQFHDNANGGQNGTVQEIMIPAGKAGLVIGKGGETIKQLQERAGVKMILIQDGSQNTNVDKPLRIIGDPYKVQQACEMVMDILRERDQGGFGDRNEYGSRIGGGIDVPVPRHSVGVVIGRSGEMIKKIQNDAGVRIQFKQDDGTGPEKIAHIMGPPDRCEHAARIINDLLQSLRSGPPGPPGGPGMPPGGRGRGRGQGNWGPPGGEMTFSIPTHKCGLVIGRGGENVKAINQQTGAFVEISRQLPPNGDPNFKLFIIRGSPQQIDHAKQLIEEKIEGPLCPVGPGPGGPGPAGPMGPFNPGPFNQGPPGAPPHAGGPPPHQYPPQGWGNTYPQWQPPAPHDPSKAAAAAADPNAAWAAYYSHYYQQPPGPVPGPAPAPAAPPAQGEPPQPPPTGQSDYTKAWEEYYKKIGQQPQQPGAPPQQDYTKAWEEYYKKQAQVATGGGPGAPPGSQPDYSAAWAEYYRQQAAYYGQTPGPGGPQPPPTQQGQQQAQ
B5: Lasp-1 (protein, UniProt Q14847-1 1-261)
chain: MNPNCARCGKIVYPTEKVNCLDKFWHKACFHCETCKMTLNMKNYKGYEKKPYCNAHYPKQSFTMVADTPENLRLKQQSELQSQVRYKEEFEKNKGKGFSVVADTPELQRIKKTQDQISNIKYHEEFEKSRMGPSGGEGMEPERRDSQDGSSYRRPLEQQQPHHIPTSAPVYQQPQQQPVAQSYGGYKEPAAPVSIQRSAPGGGGKRYRAVYDYSAADEDEVSFQDGDTIVNVQQIDDGWMYGTVERTGDTGMLPANYVEAI
B6: Matrin 3 (protein, UniProt P43243 1-847)
chain: MSKSFQQSSLSRDSQGHGRDLSAAGIGLLAAATQSLSMPASLGRMNQGTARLASLMNLGMSSSLNQQGAHSALSSASTSSHNLQSIFNIGSRGPLPLSSQHRGDADQASNILASFGLSARDLDELSRYPEDKITPENLPQILLQLKRRRTEEGPTLSYGRDGRSATREPPYRVPRDDWEEKRHFRRDSFDDRGPSLNPVLDYDHGSRSQESGYYDRMDYEDDRLRDGERCRDDSFFGETSHNYHKFDSEYERMGRGPGPLQERSLFEKKRGAPPSSNIEDFHGLLPKGYPHLCSICDLPVHSNKEWSQHINGASHSRRCQLLLEIYPEWNPDNDTGHTMGDPFMLQQSTNPAPGILGPPPPSFHLGGPAVGPRGNLGAGNGNLQGPRHMQKGRVETSRVVHIMDFQRGKNLRYQLLQLVEPFGVISNHLILNKINEAFIEMATTEDAQAAVDYYTTTPALVFGKPVRVHLSQKYKRIKKPEGKPDQKFDQKQELGRVIHLSNLPHSGYSDSAVLKLAEPYGKIKNYILMRMKSQAFIEMETREDAMAMVDHCLKKALWFQGRCVKVDLSEKYKKLVLRIPNRGIDLLKKDKSRKRSYSPDGKESPSDKKSKTDGSQKTESSTEGKEQEEKSGEDGEKDTKDDQTEQEPNMLLESEDELLVDEEEAAALLESGSSVGDETDLANLGDVASDGKKEPSDKAVKKDGSASAAAKKKLKKVDKIEELDQENEAALENGIKNEENTEPGAESSENADDPNKDTSENADGQSDENKDDYTIPDEYRIGPYQPNVPVGIDYVIPKTGFYCKLCSLFYTNEEVAKNTHCSSLPHYQKLKKFLNKLAEERRQKKET

The molecules below were run against T1, Heme oxygenase 1 (recombinant FLAGHO-1) (human) (assay: affinity purification with mass spectrometry; PC3 cells transiently transfected with FLAGHO-1 or empty FLAG vector and treated with H2O2 (200 uM); extract in 20 mM Tris, 150 mM NaCl, 5 mM MgCl2, 0.5% NP40, pH 7.5; Flag magnetic beads 2 h at 4 °C; eluted with 3XFLAG peptide; trypsin digest, LC-ESI MS/MS; only proteins differential against the empty FLAG vector were kept).
With “5′-Nucleotidase, cytosolic II (from UniProt P49902-1 1-561)” the binding was “binds”. Anexin 2 (from UniProt P07355 1-339) was tested, and the binding was “binds”. In the case of “Cardiomyopathy-associated protein 5 (from UniProt Q8N3K9 1-4069)”, the binding is reported as “binds”. In the case of “Chromobox homolog 1 (from UniProt P83916 1-185)”, the binding is reported as “binds”. In the case of “Chromobox homolog 3 (from UniProt Q13185 1-183)”, the binding is reported as “binds”. “Coiled-coil domain-containing protein 73 (from UniProt Q6ZRK6 1-1079)” was tested, and the binding was “binds”. With “Cycle-like factor CLIF (from UniProt Q8WYA1-5)” the binding was “binds”. “DNA topoisomerase 1 (from UniProt P11387 1-765)” was tested, and the binding was “binds”. For “Damage-specific DNA-binding protein 1, 127kDa (from UniProt Q16531 1-1140)”, the binding was “binds”. For Gelsolin (from UniProt P06396 28-782), the binding was “binds”. In the case of “Heat shock 27 kDa protein (from UniProt P04792 1-205)”, the binding is reported as “binds”. “High mobility group AT-hook 1 (human (endogenous in PC3))” was tested, and the binding was “binds”. “High mobility group protein HMG-I/HMG-Y isoform a (from UniProt P17096 1-107)” was tested, and the binding was “binds”. In the case of “Kinesin-like protein KIF23 (from UniProt Q02241-2)”, the binding is reported as “binds”. With “Mitochondrial import inner membrane translocase subunit (human (endogenous in PC3))” the binding was “binds”. For “Multiple epidermal growth factor-like domains protein 10 (from UniProt Q96KG7-1 26-1140)”, the binding was “binds”. In the case of “Muskelin 1 (from UniProt Q9UL63-1 1-735)”, the binding is reported as “binds”. “Nucleophosmin 1 (from UniProt P06748 1-294)” was tested, and the binding was “binds”. For “Palmdelphin, isoform CRA_a (from UniProt Q9NP74-2)”, the binding was “binds”. For “Potassium-transporting ATPase alpha chain 1 (from UniProt P20648 1-1035)”, the binding was “binds”. With “Programmed cell death 5 short isoform (human (endogenous in PC3))” the binding was “binds”. With “RNA polymerase II transcription factor SIII subunit A3-like-2 (human (endogenous in PC3))” the binding was “binds”. For “Regulator of chromosome condensation (from UniProt P18754 1-421)”, the binding was “binds”. “Replication protein A 70 kDa DNA-binding subunit (from UniProt P27694 1-616)” was tested, and the binding was “binds”. In the case of “Ribosomal protein SA pseudogene 9 (human (endogenous in PC3))”, the binding is reported as “binds”. “Sequestosome 1 (from UniProt Q13501 1-440)” was tested, and the binding was “binds”. In the case of “Signal-induced proliferation-associated 1-like protein 1 (from UniProt O43166 1-1804)”, the binding is reported as “binds”. In the case of “Translation elongation factor 1-alpha (from UniProt P68104 1-462)”, the binding is reported as “binds”. “Translation initiation factor eIF3 p40 subunit (from UniProt O15372 1-352)” was tested, and the binding was “binds”. With “Tripartite motif-containing 28 (from UniProt Q13263 1-835)” the binding was “binds”. For “Zinc-finger CCCH-type, antiviral 1 (from UniProt Q7Z2W4 1-902)”, the binding was “binds”. With “Zinc-finger protein 589 (from UniProt Q86UQ0 1-364)” the binding was “binds”. For B1, the binding was “binds”. With B2 the binding was “binds”. For B3, the binding was “binds”. In the case of B4, the binding is reported as “binds”. In the case of B5, the binding is reported as “binds”. In the case of B6, the binding is reported as “binds”.

Results are given in words; binding and its absence hold for the method and conditions named. Binding seen in cells or lysates may run through a third protein. These calls come from enrichment with a bait or labelling near it, and not all partners need be listed. Tags and fused reporters may be left off the sequences shown.
